Laboratory results as given in patent US11230581B2, “Peptides and combination of peptides for use in immunotherapy against ovarian cancer and other cancers” (Immatics Biotechnologies GmbH, priority 2015, dated 2022).
For some assays here: Expression grades refer to the transcript from which the peptide derives; gene names, where given, were looked up from the sequence.

What was measured:
additional tumor types = experiment: LC-MS detection and over-presentation of the peptides on additional tumor types, cell lines and primary cultures; parameters: species or system human; settings: for Other relevant organs/ cancerous diseases: Table 4A: additional tumor types on which the peptide was found, over-presented on more than 5% of measured tumor samples, or presented on more than 5% with ratio of geometric means tumor vs normal tissues larger than 3
[1] = test system: source genes of the peptides (mRNA) in ovarian cancer vs normal tissues; experiment: Expression profiling of genes encoding the peptides (RNAseq, expression score); parameters: species or system human; key: +++: very highly over-expressed in tumors compared to a panel of normal tissues; ++: highly over-expressed in tumors compared to a panel of normal tissues; +: over-expressed in tumors compared to a panel of normal tissues; settings: source gene over-expression in tumors compared to a panel of normal tissues
ovarian cancer samples = experiment: Relative LC-MS quantitation of HLA-presented peptides: presentation and over-presentation on ovarian cancer vs a panel of normal tissues (presentation score); parameters: species or system human; key: +++: very highly over-presented on tumors compared to a panel of normal tissues; ++: highly over-presented on tumors compared to a panel of normal tissues; +: over-presented on tumors compared to a panel of normal tissues; settings: over-presentation on tumors compared to a panel of normal tissues
[2] = additional tumor types with over-presentation on more than 5% of the measured tumor samples, or presentation on more than 5% with ratio of geometric means tumor vs normal tissues larger than 3
[3] = amendment of Table 4: additional tumor types showing over-presentation (including specific presentation) on more than 5% of measured tumor samples, or presentation on more than 5% with ratio of geometric means tumor vs normal tissues larger than 3

Substance	Other relevant organs/ cancerous diseases (additional tumor types)	Gene Expression (expression score) [1]	Additional organs/cancerous diseases (additional tumor types; [2])	Peptide Presentation (presentation score) (ovarian cancer samples)	Additional organs/cancerous diseases (additional tumor types; [3])
371: peptide found in RNF213 (gene looked up) (FLQAHLHTA; listed as Homo sapiens) [compound 371]	BrCa	++			
372: peptide found in RNF213 (gene looked up) (TMLLNIPLV; listed as Homo sapiens) [compound 372]	SCLC, HCC, PC, PrC, BrCa	++	CLL, Gallbladder Cancer and Bile Duct Cancer, AML, NHL	+++	
632: peptide found in SMARCC1 (gene looked up) (YLIPDIDLKL; listed as Homo sapiens) [compound 632]	NSCLC, SCLC, CRC, HCC, PC, Leukemia, Melanoma, Urinary bladder Cancer, Uterine Cancer	+	CLL, AML, NHL, HNSCC	++	
193: peptide found in CLSPN (gene looked up) (QLLDADGFLNV; listed as Homo sapiens) [compound 193]		+++	SCLC, NHL	+++	
426: peptide found in NCAPD2 (gene looked up) (RLADKSVLV; listed as Homo sapiens) [compound 426]	Colon, Rectum	+	BRCA, AML		
456: peptide found in NUP205 (gene looked up) (LLIGHLERV; listed as Homo sapiens) [compound 456]		+	BRCA, AML, NHL, HNSCC	++	
230: peptide found in CCNA2 (gene looked up) (ILVDWLVEV; listed as Homo sapiens) [compound 230]	Melanoma, Endometrium	+++	Esophageal Cancer, Gallbladder Cancer and Bile Duct Cancer, AML, NHL, HNSCC	+++	
184: peptide found in RNF213 (gene looked up) (YLMDINGKMWL; listed as Homo sapiens) [compound 184]	NSCLC, SCLC, Melanoma	++		+++	CLL, Uterine Cancer, Gallbladder Cancer and Bile Duct Cancer, NHL
509: peptide found in CANX (gene looked up) (FLFDTKPLIV; listed as Homo sapiens) [compound 509]		+	CLL	+++	
116: peptide found in IDO1 (gene looked up) (YHIDEEVGF; listed as Homo sapiens) [compound 116]		+++		+++	
588: peptide found in RNF213 (gene looked up) (SLLPLSHLV; listed as Homo sapiens) [compound 588]	Melanoma, Esophageal Cancer	+	CLL, Gallbladder Cancer and Bile Duct Cancer, AML, NHL, HNSCC	+	
258: peptide found in NCAPD2 (gene looked up) (ELAERVPAI; listed as Homo sapiens) [compound 258]	Esophageal Cancer	++	CLL, Urinary Bladder Cancer, Gallbladder Cancer and Bile Duct Cancer, AML, NHL, HNSCC		
81: peptide found in NUP205 (gene looked up) (FLFSQLQYL; listed as Homo sapiens) [compound 81]		+		+++	Gallbladder Cancer and Bile Duct Cancer, AML
194: peptide found in SLC28A3 (gene looked up) (ALPLFVITV; listed as Homo sapiens) [compound 194]		++	AML, HNSCC	+++	
126: peptide found in MCM2 (gene looked up) (VLAYFLPEA; listed as Homo sapiens) [compound 126]	NSCLC, SCLC, CRC, PC, Leukemia, Esophageal Cancer, Uterine Cancer	+		+	CLL, BRCA, Urinary Bladder Cancer, Gallbladder Cancer and Bile Duct Cancer, AML, NHL, HNSCC
484: peptide found in KIF15 (gene looked up) (SLIEKVTQL; listed as Homo sapiens) [compound 484]	HCC	+++	SCLC, CRC, CLL, BRCA, Melanoma, Esophageal Cancer, Urinary Bladder Cancer, Uterine Cancer, AML, NHL		

Substance	Other relevant organs/ cancerous diseases (additional tumor types)	Gene Expression (expression score) [1]	Additional organs/cancerous diseases (additional tumor types; [2])	Peptide Presentation (presentation score) (ovarian cancer samples)	Additional organs/cancerous diseases (additional tumor types; [3])
602: peptide found in ERMP1 (gene looked up) (YLLEQIKLIEV; listed as Homo sapiens) [compound 602]	NSCLC, SCLC	++			
339: peptide found in HDGF (gene looked up) (GLWEIENNPTVKA; listed as Homo sapiens) [compound 339]	HCC, Melanoma, Endometrium	+	Gallbladder Cancer and Bile Duct Cancer		
616: peptide found in TRIP13 (gene looked up) (VLIDEVESL; listed as Homo sapiens) [compound 616]	NSCLC, SCLC, RCC, GC, BrCa, Melanoma, Esophageal Cancer, Urinary bladder Cancer	++	CRC, Uterine Cancer, Gallbladder Cancer and Bile Duct Cancer, AML, NHL, HNSCC		
566 (VIADGGIQNV; listed as Homo sapiens) [compound 566]	Leukemia, Melanoma, Endometrium		CRC, CLL, BRCA, Urinary Bladder Cancer, Gallbladder Cancer and Bile Duct Cancer, NHL	++	
638 (KLIQESPTV; listed as Homo sapiens) [compound 638]	SCLC, HCC, Prostate		Gallbladder Cancer and Bile Duct Cancer, AML	+	
127 (KIGDEPPKV; listed as Homo sapiens) [compound 127]	NSCLC, SCLC, Brain Cancer, PC, Esophageal Cancer, Uterine Cancer			++	BRCA, Melanoma, Urinary Bladder Cancer, Gallbladder Cancer and Bile Duct Cancer, HNSCC
379 (IMEGTLTRV; listed as Homo sapiens) [compound 379]	Leukemia		RCC, CLL, Melanoma, Urinary Bladder Cancer, NHL	+	
513 (SLWPSPEQL; listed as Homo sapiens) [compound 513]	HCC, Esophageal Cancer		Melanoma, AML, NHL, HNSCC	+++	
341 (SQIALNEKLVNL; listed as Homo sapiens) [compound 341]	SCLC, HCC		Urinary Bladder Cancer	+	
315 (YLQDVVEQA; listed as Homo sapiens) [compound 315]	SCLC, Endometrium			++	
530 (VMYADIGGMDI; listed as Homo sapiens) [compound 530]	SCLC, Melanoma		CLL, Urinary Bladder Cancer, Uterine Cancer, Gallbladder Cancer and Bile Duct Cancer, HNSCC	+	
486 (AVMESIQGV; listed as Homo sapiens) [compound 486]	NSCLC, HCC, PrC, Leukemia, Esophageal Cancer, Urinary bladder Cancer, Uterine Cancer		CLL	++	
626 (LLMATILHL; listed as Homo sapiens) [compound 626]	SCLC, Melanoma, Urinary bladder Cancer, Gallbladder Cancer, Bile Duct Cancer		CLL, AML, NHL, HNSCC	++	
108 (ALFPGVALLLA; listed as Homo sapiens) [compound 108]	SCLC, HCC, Endometrium			+++	Melanoma
550 (FLYDEIEAEVNL; listed as Homo sapiens) [compound 550]	Leukemia, Melanoma		CLL	+	
